Assay: Lens binding by Zone of Inhibition Technique
Details: 50 ppm solution, radius of zone

[H]/N=C(\N/C(=N/[H])NCCCCCCNC(=N)NC(=N)Nc1ccc(Cl)cc1)Nc1ccc(Cl)cc1 [Chlorhexidine, chlorhexidine gluconate]
ZONE OF INHIBITION Saline Rinse (lens soaked overnight at room temperature, saline rinse): 7 mm
ZONE OF INHIBITION Saline Soak 15 Min. (lens soaked overnight, then 15 minutes in isotonic saline): 8 mm
ZONE OF INHIBITION Saline Soak 1 Hour (lens soaked overnight, then one hour in isotonic saline): 7 mm
ZONE OF INHIBITION Saline Soak 3 Hours (lens soaked overnight, then three hours in isotonic saline): 5.5 mm
